Reference: article PMC10353116

Chains of the proteins cited; added tags and fusions are not shown. Residues count along the entry.
UniProt Q9H6L5: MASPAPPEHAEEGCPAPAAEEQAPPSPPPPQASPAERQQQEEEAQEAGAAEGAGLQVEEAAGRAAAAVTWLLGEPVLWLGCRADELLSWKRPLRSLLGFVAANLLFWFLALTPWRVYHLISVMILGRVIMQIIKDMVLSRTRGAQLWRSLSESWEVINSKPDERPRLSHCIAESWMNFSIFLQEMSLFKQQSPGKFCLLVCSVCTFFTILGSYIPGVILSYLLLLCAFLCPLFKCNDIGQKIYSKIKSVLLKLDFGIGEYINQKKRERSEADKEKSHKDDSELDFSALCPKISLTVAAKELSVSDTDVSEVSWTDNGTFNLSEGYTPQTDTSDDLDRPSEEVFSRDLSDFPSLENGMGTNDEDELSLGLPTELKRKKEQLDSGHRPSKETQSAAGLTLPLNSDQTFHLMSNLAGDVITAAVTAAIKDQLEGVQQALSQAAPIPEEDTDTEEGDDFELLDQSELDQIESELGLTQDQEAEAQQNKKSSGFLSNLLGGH
UniProt P36888, residues 27-993: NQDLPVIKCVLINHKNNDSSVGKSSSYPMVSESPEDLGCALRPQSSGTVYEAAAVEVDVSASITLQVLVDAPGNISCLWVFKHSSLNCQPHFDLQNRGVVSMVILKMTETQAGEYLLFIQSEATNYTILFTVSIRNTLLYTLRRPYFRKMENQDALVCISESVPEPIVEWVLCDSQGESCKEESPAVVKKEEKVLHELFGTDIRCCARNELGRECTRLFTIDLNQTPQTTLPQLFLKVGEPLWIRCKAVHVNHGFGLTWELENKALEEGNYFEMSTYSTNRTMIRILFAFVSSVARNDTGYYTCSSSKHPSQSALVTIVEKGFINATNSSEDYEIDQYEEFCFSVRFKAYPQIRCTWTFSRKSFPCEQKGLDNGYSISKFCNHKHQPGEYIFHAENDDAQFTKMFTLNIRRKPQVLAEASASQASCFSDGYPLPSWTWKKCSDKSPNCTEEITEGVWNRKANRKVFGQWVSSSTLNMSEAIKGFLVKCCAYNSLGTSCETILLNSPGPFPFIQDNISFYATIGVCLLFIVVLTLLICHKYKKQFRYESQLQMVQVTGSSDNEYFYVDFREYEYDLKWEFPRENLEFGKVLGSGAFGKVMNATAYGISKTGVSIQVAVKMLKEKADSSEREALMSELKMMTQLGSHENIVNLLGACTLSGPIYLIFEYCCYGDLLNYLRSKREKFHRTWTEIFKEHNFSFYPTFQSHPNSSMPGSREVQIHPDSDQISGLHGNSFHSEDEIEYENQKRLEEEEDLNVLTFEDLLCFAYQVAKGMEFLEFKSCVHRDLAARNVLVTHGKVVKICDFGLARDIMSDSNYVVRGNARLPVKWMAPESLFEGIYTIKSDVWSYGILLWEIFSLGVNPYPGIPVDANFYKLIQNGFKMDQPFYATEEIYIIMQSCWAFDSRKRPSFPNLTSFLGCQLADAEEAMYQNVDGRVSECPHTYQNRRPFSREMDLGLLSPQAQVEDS

Biological target: Family with sequence similarity 134 member B (FAM134B) (human) (UniProt Q9H6L5)
Assay: affinity purification with mass spectrometry; immunoprecipitation of FAM134B, Coomassie-stained gel, MS sequencing; cells and conditions not stated

FMS related receptor tyrosine kinase 3 (FLT3) (from UniProt P36888 27-993)
binding: binds

Results are given in words; binding and its absence hold for the method and conditions named. In cells and extracts the contact can be indirect. A yes stands for co-enrichment or nearness to the bait. Other partners may have been found.
